From PubChem BioAssay AID1487 (National Center for Advancing Translational Sciences (NCATS), 2009)
Some of the results follow. These are further read-outs of the screen, such as a control signal, another cell line or another target. No call is given for them. The list favours compounds with an active or inconclusive main result. Potencies come from curve fits of mixed quality, noted in brackets.

Test: qHTS Assay for Modulators of Lamin A Splicing
Conditions: HeLa LMNA splicing GFP/RFP minigene ratio, 48 h
Outline: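 Read-out is the ratio of GFP to DsRed2 object intensity, acquired by 488 nm laser-scanning cytometry on HeLa lamin A-EGFP minigene reporter cells. Compound incubation 48 hrs at 37 °C in Opti-MEM with 2% FBS; DMSO 0.5% final.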

[1] = measured here: GFP splicing reporter channel
[2] = measured here: RFP viability control channel

Compound	AC50 [1]	AC50 [2]
CCOC(=O)C(=NCCCN1CCOCC1)NNc1cccc(C(F)(F)F)c1	12.6 µM [rising, single point]	
Cc1ccc(N(Cc2ccco2)C(=O)c2ccc(N3CCCCC3)c([N+](=O)[O-])c2)cc1	12.6 µM [rising, single point]	
CN(C)c1nc(Oc2ccc(OCCOc3ccccc3)nn2)nc(N(C)C)n1		0.112 µM [falling, full curve, poor fit]
COc1ccccc1CN1CCNC(=O)C1CC(=O)NCCC1=CCCCC1 (configuration not stated)	6.31 µM [falling, partial curve, poor fit]	0.447 µM [falling, partial curve, poor fit]
O=C(Nc1ccccc1N1CCOCC1)C1CCN(S(=O)(=O)c2ccccc2F)CC1		8.91 µM [rising, partial curve]
COc1ccc(C2=C(C#N)C(=O)OC2)cc1	22.4 µM [falling, single point]	35.5 µM [falling, single point]
O=C(CSc1nc(O)c(C2CCCCC2)c(=O)[nH]1)NCC1CCCO1 (configuration not stated)	35.5 µM [rising, single point]	15.8 µM [rising, single point]
CCOc1ccc(-c2c(C)nn3c(C)c(C(=O)NCC(C)c4ccccc4)cnc23)cc1OCC (configuration not stated)	5.62 µM [falling, partial curve, poor fit]	0.251 µM [falling, full curve]
CCc1ccccc1NC(=O)/C(=C/c1ccco1)c1ccccc1		7.08 µM [rising, partial curve, poor fit]
COc1cc(C)ccc1OCCCCOc1ccccc1C(C)=O	3.55 µM [rising, full curve]	12.6 µM [rising, partial curve]
CC(C)c1ccccc1NC(=O)COC(=O)C1(C)CC1(Cl)Cl (configuration not stated)		8.91 µM [falling, partial curve]
Cc1cccc(NC(=O)C(=O)NCCCc2ccccc2)c1		22.4 µM [rising, single point]
O=c1c2sccc2nc(SCc2cc(=O)n3ccccc3n2)n1-c1ccc(Br)cc1	0.355 µM [falling, full curve, poor fit]	
CC1(C)[C@@H]2CC[C@]1(C)[C@@H](OC(=O)CSC#N)C2		6.31 µM [rising, single point]
CC(C)CC(C(=O)Nc1oc(-c2ccccc2)c(-c2ccccc2)c1C#N)N1C(=O)c2ccccc2C1=O (configuration not stated)		35.5 µM [rising, single point]
COc1ccccc1-c1c(C#N)c(N)nc2c1CCc1ccccc1-2	35.5 µM [falling, partial curve]	2.82 µM [falling, partial curve]

Rewritten with bars between the fields: part of the list above.
Compound | AC50 [1] | AC50 [2]
Cc1ccc(N(Cc2ccco2)C(=O)c2ccc(N3CCCCC3)c([N+](=O)[O-])c2)cc1 | 12.6 µM [rising, single point] | 
CN(C)c1nc(Oc2ccc(OCCOc3ccccc3)nn2)nc(N(C)C)n1 |  | 0.112 µM [falling, full curve, poor fit]
